Measured values: US5885786A, “Methods for screening of substances for inhibition of multidrug resistance” (priority 1996, dated 1999)
“Also recorded” adds a separate entry of the source. For some of these results: The name of at least one read-out is uncertain. For some of these results: At least one compound was matched to its structure with a doubt left.

Experiments:
MCF-7-AdrR cells [1] = test: Cell proliferation (MTS) assay: adriamycin toxicity and chemosensitization; conditions: 5.0 μM tested drug + adriamycin, 72 h, FIG. 15A, 16B
Description: FIG. 15A and FIG. 15B. […] FIG. 15B: Glycosylceramide levels in MDR Cells following drug treatment. […] In order to avoid differences in [^3 H]glycosylceramide values which account for cell death, the same amount of total radioactive lipid from each sample was applied to TLC separation.
FIG. 16A and FIG. 16B. […] FIG. 16A: Effect of PPMP on cellular glycosylceramide levels. […] [^3 H]Glycosylceramide was quantitated as described in the legend to FIG. 9.
Vehicle (acetone, ethanol) was always added to control (minus drug) wells. The cytotoxic activity of a drug was determined using the Promega CellTiter 96™ AQueous MTS cell proliferation assay kit. Each experimental point was performed in six replicates. MTS/PMS solution (20 μl/well) was aliquoted into all wells, and the cells were incubated for 2-3 h, or until an O.D. of 0.9-1.0 was obtained as a highest reading. Thereafter, absorbence at 490 nm was recorded using an ELISA plate reader (Molecular Devices, San Diego, Calif.).

[2] = test system: glycosylceramide formation in MCF-7-AdrR cells; test: Inhibition of [3H]glycosylceramide formation in MCF-7-AdrR cells (TLC, liquid scintillation); assay type: cell-based
Method: FIG. 9. […] Values represent the mean of determinations from three separate experiments, and are calculated as the percent glycosylceramide in the total lipid tritium extract.
FIG. 11A and FIG. 11B. […] FIG. 11: A Autoradiography. […] For autoradiography equal aliquots by volume of total lipid extract were applied to TLC plates. […] [^3 H]Glycosylceramide, visualized in panel A, was quantitated as described in the legend to FIG. 9. Each value represents mean±SEM of determinations from three separate experiments.
FIG. 12. […] [^3 H]Glycosylceramide was quantitated as described in the legend to FIG. 9. Results represents the mean±SEM of determinations from three separate experiments.
MCF-7 cells, grown in medium containing 10% FBS, were switched to media containing 5% FBS. Cell lipids were radiolabeled by adding [^3 H]serine (2.0 μCi/ml), [^3 H]palmitic acid (1.0 μCi/ml), or [^3 H]galactose (1.0 μCi/ml) to the culture medium for the indicated times. Other radiolabels can be substituted. Cells were then rinsed twice with PBS, pH 7.4, and 2 ml of ice-cold methanol containing 2% acetic acid was added. […]
Radiochromatograms were sprayed with EN^3 HANCE, and exposed for 3-7 days for autofluorgraphy. […] Water (0.5 ml) was added to the plate scrapings followed by 4.5 ml of EcoLume counting fluid, and the samples were quantitated by liquid scintillation spectrometry.

[3] = test system: glycosylceramide synthesis in MCF-7-AdrR cells; test: Glycosylceramide levels in MDR cells following drug treatment, [3H]serine 48 h; assay type: cell-based; conditions: 5.0 μM, alone or with adriamycin 2.5 μM, FIG. 15B
MCF-7-AdrR cells [4] = conditions: Rosenwald and Pagano, 1994; read-out: toxic concentration (toxic lipophilic amine); cited from earlier work

Structure (SMILES) | effect on adriamycin toxicity / chemosensitization (in words) (MCF-7-AdrR cells [1]) | inhibition of glycosylceramide synthesis (in words) [2] | inhibition of glycosylceramide synthesis (in words) [3] | MCC (MCF-7-AdrR cells [4])
CCC(=C(c1ccccc1)c1ccccc1)c1ccccc1 [triphenylbutene] | ineffective; also recorded: did not enhance cell kill | poor inhibitor; also recorded: not by the tamoxifen analog | not an effective inhibitor | –
CCCCCCCCCCCCCCCC(=O)NC(CN1CCOCC1)C(O)c1ccccc1 (stereo not shown) [PPMP] | – | – | – | > 30 µM
